Laboratory results published in publication PMC4882342.
These are yes or no findings as the source states them, for the method shown. In cells and extracts the contact can be indirect. Some results given as binding are weak or reduced against the parent protein; the word gives no strength.

Chains of the proteins cited; added tags and fusions are not shown.
UniProt Q91YD1: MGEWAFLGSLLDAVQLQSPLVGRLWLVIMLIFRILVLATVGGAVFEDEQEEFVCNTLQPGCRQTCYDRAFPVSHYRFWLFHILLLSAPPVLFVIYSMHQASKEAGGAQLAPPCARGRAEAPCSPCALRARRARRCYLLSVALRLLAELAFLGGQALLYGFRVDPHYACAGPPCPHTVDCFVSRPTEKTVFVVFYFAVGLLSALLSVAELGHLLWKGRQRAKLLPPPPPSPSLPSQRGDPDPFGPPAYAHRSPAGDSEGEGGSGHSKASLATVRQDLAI
UniProt O54851: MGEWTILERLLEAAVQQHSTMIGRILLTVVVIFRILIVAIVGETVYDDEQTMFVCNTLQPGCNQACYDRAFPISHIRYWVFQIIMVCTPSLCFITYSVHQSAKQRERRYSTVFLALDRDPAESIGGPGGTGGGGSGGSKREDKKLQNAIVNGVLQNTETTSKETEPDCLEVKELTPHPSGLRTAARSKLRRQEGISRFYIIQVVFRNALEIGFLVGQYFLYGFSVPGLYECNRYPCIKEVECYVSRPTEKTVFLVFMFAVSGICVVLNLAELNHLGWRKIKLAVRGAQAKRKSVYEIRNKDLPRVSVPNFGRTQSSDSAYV

How the values were obtained:
[1] = target: Connexin30.2 (Cx30.2), untagged (mouse) (UniProt Q91YD1); test: co-IP; anti-Cx30.2 antibodies coupled to beads; untagged Cx30.2 and Cx36 co-expressed in HeLa cells; Cx36 detected
[2] = target: Cx36-EGFP fusion protein (mouse) (UniProt O54851); test: co-IP; uMACS GFP Isolation Kit: magnetic beads coupled to anti-GFP antibody; extracts of co-transfected HeLa cells in IP buffer (0.5% NP-40, 20 mM Tris, 60 mM NaCl, pH 7.4); Western blot with anti-Cx30.2, anti-Cx36, anti-GFP
[3] = target: Cx30.2-EGFP fusion protein (mouse) (UniProt Q91YD1); test: as above

binding [1]	binding [2]	binding [3]	Substance
binds	binds	binds	Connexin36 (Cx36), untagged (from UniProt O54851 1-321)
	binds	binds	Connexin30.2 (Cx30.2), untagged (from UniProt Q91YD1 1-278)
